Test results taken from paper PMC7368280.
These are yes or no findings as the source states them, for the method shown. Binding seen in cells or lysates may run through a third protein. These calls come from enrichment with a bait or labelling near it, and not all partners need be listed. Tags and fused reporters may be left off the sequences shown.

T1: ICU11-3xHA (gICU11-HA in icu11-3) (Arabidopsis), Q3ED68
T1 chain: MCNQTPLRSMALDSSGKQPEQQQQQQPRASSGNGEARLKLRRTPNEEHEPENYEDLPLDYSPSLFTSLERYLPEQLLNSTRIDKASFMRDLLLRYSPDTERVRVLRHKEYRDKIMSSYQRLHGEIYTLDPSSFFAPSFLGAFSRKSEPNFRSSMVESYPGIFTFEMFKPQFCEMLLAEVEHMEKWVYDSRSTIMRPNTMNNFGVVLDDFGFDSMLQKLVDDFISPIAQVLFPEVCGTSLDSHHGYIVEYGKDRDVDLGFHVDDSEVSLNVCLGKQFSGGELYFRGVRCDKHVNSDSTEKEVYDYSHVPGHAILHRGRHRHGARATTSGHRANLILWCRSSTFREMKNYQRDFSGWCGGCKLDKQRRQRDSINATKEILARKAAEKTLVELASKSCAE

T2: ICU11-eGFP (gICU11-GFP in icu11-3) (Arabidopsis), Q3ED68
T2 chain: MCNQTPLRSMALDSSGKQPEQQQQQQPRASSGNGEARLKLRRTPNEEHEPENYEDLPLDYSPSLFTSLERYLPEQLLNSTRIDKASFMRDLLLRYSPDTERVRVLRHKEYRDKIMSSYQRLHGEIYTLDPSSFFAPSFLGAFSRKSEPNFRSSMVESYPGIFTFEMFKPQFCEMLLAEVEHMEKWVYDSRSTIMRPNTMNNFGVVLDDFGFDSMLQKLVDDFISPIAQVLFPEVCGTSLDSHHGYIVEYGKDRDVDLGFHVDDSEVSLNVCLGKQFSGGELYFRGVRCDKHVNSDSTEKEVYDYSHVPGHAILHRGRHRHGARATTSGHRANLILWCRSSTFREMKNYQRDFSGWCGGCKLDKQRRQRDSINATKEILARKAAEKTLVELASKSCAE

T3: GFP-CLF (35S:GFP-CLF in clf-50) (Arabidopsis), P93831
T3 chain: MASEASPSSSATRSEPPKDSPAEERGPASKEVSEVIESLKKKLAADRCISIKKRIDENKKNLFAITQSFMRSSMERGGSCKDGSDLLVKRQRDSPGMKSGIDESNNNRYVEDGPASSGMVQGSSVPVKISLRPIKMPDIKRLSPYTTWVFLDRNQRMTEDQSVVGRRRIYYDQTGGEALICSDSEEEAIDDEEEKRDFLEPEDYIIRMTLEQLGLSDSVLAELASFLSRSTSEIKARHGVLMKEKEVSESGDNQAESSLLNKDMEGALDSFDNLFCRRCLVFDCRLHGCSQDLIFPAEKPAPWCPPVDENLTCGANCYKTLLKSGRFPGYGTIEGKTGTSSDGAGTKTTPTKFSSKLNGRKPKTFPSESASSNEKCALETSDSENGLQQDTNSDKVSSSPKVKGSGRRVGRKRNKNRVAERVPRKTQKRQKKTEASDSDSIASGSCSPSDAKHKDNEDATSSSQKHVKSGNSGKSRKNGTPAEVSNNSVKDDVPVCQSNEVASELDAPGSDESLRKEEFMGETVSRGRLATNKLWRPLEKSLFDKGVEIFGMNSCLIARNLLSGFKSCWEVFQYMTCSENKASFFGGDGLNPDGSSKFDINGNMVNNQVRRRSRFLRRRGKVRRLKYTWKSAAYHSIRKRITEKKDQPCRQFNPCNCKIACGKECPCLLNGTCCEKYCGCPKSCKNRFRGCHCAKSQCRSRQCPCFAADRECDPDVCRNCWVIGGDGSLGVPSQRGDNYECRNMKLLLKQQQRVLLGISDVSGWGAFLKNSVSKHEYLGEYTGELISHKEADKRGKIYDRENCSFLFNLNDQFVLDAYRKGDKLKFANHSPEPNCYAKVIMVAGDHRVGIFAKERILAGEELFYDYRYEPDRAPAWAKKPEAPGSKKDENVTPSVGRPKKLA


Legend:
Settings in all cases: remark: other sources report otherwise
[1] = target: T1, ICU11-3xHA (gICU11-HA in icu11-3) …; test: affinity purification with mass spectrometry; coIP-MS with 3xHA-tagged ICU11 as bait from Arabidopsis plants (gICU11-HA icu11-3), control icu11-3; two independent experiments; procedure in SI Appendix
[2] = target: T2, ICU11-eGFP (gICU11-GFP in icu11-3) …; test: affinity purification with mass spectrometry; coIP-MS with GFP-tagged baits from Arabidopsis plants (gICU11-GFP icu11-3; 35S:GFP-CLF clf-50; gSWN-GFP), control 35S::GFP; two independent experiments; procedure in SI Appendix
[3] = target: T3, GFP-CLF (35S:GFP-CLF in clf-50) …; test: as above

binding [1] | binding [2] | binding [3] | Binder
binds | binds | – | JMJ14, Q8GUI6 1-954 (protein) MDQLASLAESVAMEEDSEKQSIKGESSLEPDSTPSSPKITARWNPSEACRPLVDDAPIFYPTNEDFDDPLGYIEKLRSKAESYGICRIVPPVAWRPPCPLKEKKIWENSKFPTRIQFIDLLQNREPIKKSTKTKKRKRRRISKIGYTRRKRDSGCDTASSGSSDSEGKFGFQTGPDFTLEEFQKYDEYFKECYFQSEDHPGSKASENKKFKPKVKDLEGEYWRIVEQATDEVEVYYGADLETKKFGSGFPKYKPGYPISEADQYSQCGWNLNNLSRLPGSVLAFESCDISGVIVPWLYVGMCFSTFCWHVEDHHLYSMNYLHTGDPKVWYGIPGNHAESFENVMKKRLPDLFEEQPDLLHQLVTQLSPRILKEEGVPVYRAVQRSGEFILTFPKAYHSGFNCGFNCAEAVNVAPVDWLVHGQNAVEGYSKQRRKSSLSHDKLLLGAAMEATYCLWELSLSKKKTPVIARWKRVCSEDGLLTKAVKKRVQMEEERLNHLQDGFSLRKMEGDFDNKRERECFLCFYDLHMSASSCKCSPNRFACLIHAKDLCSCESKDRYILIRHTLDELWALVRALEGDLDAIDLWASKCRDQYPSQHPRAREYAYLKSAPCIKSRGSSKVQQREQNNLQLVSERLQSDLTSNKEVQLKQDGDSDVNRHGHESERNHVHGITDKSAVTDVKLGVGGKFDEKKISVESQNPHSVSDVGCSELAKKVDGCLGGKDQNAATNRLSLSVELLSSGSLVVKKLWCSKQAIYPKGFKSRVKFLSVLDPTNLTNYISEVLDAGLLGPLFRVSVEDYPTENFSNVSAEKCWQMVTQRLKLEIIKKCDQPVSSLTSLQPLESINGLEMFGFLSPHVIKVVEALDPKHQLEEYWNQKAVKLFGAEPIKEGEKDDTEKGGASDPSLDRDTRLLRGLLKKATPEELVMMHGLLCGETRNTELKEELSTLVDKMEISP
– | – | binds | SWINGER (SWN), endogenous, Q9ZSM8 1-856 (protein) MVTDDSNSSGRIKSHVDDDDDGEEEEDRLEGLENRLSELKRKIQGERVRSIKEKFEANRKKVDAHVSPFSSAASSRATAEDNGNSNMLSSRMRMPLCKLNGFSHGVGDRDYVPTKDVISASVKLPIAERIPPYTTWIFLDRNQRMAEDQSVVGRRQIYYEQHGGETLICSDSEEEPEPEEEKREFSEGEDSIIWLIGQEYGMGEEVQDALCQLLSVDASDILERYNELKLKDKQNTEEFSNSGFKLGISLEKGLGAALDSFDNLFCRRCLVFDCRLHGCSQPLISASEKQPYWSDYEGDRKPCSKHCYLQLKAVREVPETCSNFASKAEEKASEEECSKAVSSDVPHAAASGVSLQVEKTDIGIKNVDSSSGVEQEHGIRGKREVPILKDSNDLPNLSNKKQKTAASDTKMSFVNSVPSLDQALDSTKGDQGGTTDNKVNRDSEADAKEVGEPIPDNSVHDGGSSICQPHHGSGNGAIIIAEMSETSRPSTEWNPIEKDLYLKGVEIFGRNSCLIARNLLSGLKTCLDVSNYMRENEVSVFRRSSTPNLLLDDGRTDPGNDNDEVPPRTRLFRRKGKTRKLKYSTKSAGHPSVWKRIAGGKNQSCKQYTPCGCLSMCGKDCPCLTNETCCEKYCGCSKSCKNRFRGCHCAKSQCRSRQCPCFAAGRECDPDVCRNCWVSCGDGSLGEAPRRGEGQCGNMRLLLRQQQRILLGKSDVAGWGAFLKNSVSKNEYLGEYTGELISHHEADKRGKIYDRANSSFLFDLNDQYVLDAQRKGDKLKFANHSAKPNCYAKVMFVAGDHRVGIFANERIEASEELFYDYRYGPDQAPVWARKPEGSKKDDSAITHRRARKHQSH
